# Measurements as given in the supplement of paper PMC3334620.
# The full ranking holds about 33,000 sequences; the median of “E-score (-0.5 to 0.5)” is about -0.0059, and the highest 2% start at about 0.26. Some of the results follow.
# Target: T1, Cin5 (UniProt P40917)
# T1 sequence: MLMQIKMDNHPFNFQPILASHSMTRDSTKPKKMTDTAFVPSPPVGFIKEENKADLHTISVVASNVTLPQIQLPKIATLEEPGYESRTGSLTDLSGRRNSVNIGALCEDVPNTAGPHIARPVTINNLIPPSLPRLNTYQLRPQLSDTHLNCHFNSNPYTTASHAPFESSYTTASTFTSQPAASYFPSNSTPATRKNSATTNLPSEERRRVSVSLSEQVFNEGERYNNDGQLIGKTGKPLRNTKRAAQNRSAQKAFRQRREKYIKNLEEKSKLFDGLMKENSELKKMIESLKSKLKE
# Test: PBM E-score (8-mer binding enrichment) (E-score (-0.5 to 0.5)); higher = stronger / more preferred TF binding
# Conditions: protein concentration: 100 nM; construct: GST-full length
# Experimental: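 Universal 'all 10-mer' protein binding microarrays (Agilent AMADID 015681) probed with GST-tagged S. cerevisiae TFs (full-length or DBD) made by in vitro transcription/translation (PURExpress), about 100-200 nM. Bound TF was detected with fluorescent anti-GST. Each ungapped 8-mer (which stands for itself and its reverse complement) is scored by the PBM enrichment score (E-score), a modified Wilcoxon-Mann-Whitney statistic from -0.5 to +0.5, computed with the Universal PBM Analysis Suite. Scale: above 0.35 generally sequence-specific binding.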
row,Sequence,PBM E-score
1,GAGCTCGA,0.069
2,ATGCCCTC,-0.0244
3,CTACAGAA,0.0595
4,ATCATCGC,0.126
5,CCTTTGTC,-0.0179
6,CAGAAATA,0.164
7,AACGGCAC,-0.203
8,CTCCGAAG,-0.0908
9,AATTTTGT,0.148
10,AGCACGAC,-0.126
11,ATCCTGGC,-0.0732
12,AATTCAGC,0.143
13,CACAGTCC,-0.159
14,AGCGGCTG,-0.125
15,GCACTAAC,-0.0978
16,GAAAGGGA,-0.278
17,GAACTCAA,-0.0343
18,CTGTGCTC,0.0772
19,ACCAACGG,-0.176
20,AGCGGTTG,0.0567
21,CGGCAGAC,-0.217
22,AGCAGGGG,-0.251
23,ATGGTGCC,-0.289
24,AGTATGCG,-0.0448
25,CCCCGCCA,0.0727

row,Sequence,PBM E-score
1,AGGCGTCG,-0.11
2,CAGTTATG,0.175
3,AGACTTAT,-0.0908
4,AAATAATA,0.313
5,AACGTGCT,-0.116
6,GCACCCGA,-0.206
7,AACTCTCG,0.0393
8,TGTGCTAA,0.125
9,GGACTTTA,-0.0756
10,AACCTTAG,-0.131
11,GGACCCGA,-0.0855
12,GTGACAAA,0.115
13,TAAATACA,0.0976
14,TCGTGAAA,-0.217
15,CGCGCAGA,0.178
16,ATGGTGGG,-0.078
17,TAATGAAA,0.203
18,TACTTACA,0.167
19,CAGGCGAG,-0.136
20,AGGACATC,0.0116
21,AACTCCTC,-0.214
22,GCGGCATA,0.088
23,GTTCAAGA,-0.162
24,ATCGGAAA,0.0538
25,GCCTACCC,-0.161

row,Sequence,PBM E-score
1,CCGCCGTC,0.0344
2,GCCCTACC,-0.197
3,ATGGAGCA,-0.0264
4,TGACAGCA,0.115
5,ACGACGTG,-0.0434
6,CACACTAG,-0.0474
7,ACGAATGA,0.245
8,GGCTACAA,0.038
9,CGACTTGA,-0.0696
10,ACCAGTGA,-0.0142
11,GAATTGAA,0.185
12,CTAGCCTC,-0.159
13,AATCGGAC,0.00251
14,CCACTGTA,0.0953
15,GGCGTGAA,-0.183
16,ACTGAGCG,-0.247
17,GCGTATCA,-0.0134
18,AAGTCCAC,-0.187
19,CAGCGGCA,-0.0718
20,AATAACTG,0.121
21,GCTCGAGC,0.125
22,ACAGGCTG,-0.133
23,ACGGGAAA,0.0935
24,GACAAGGC,-0.0783
25,ATAGGTCA,0.0611

# Look-ups from above:
# Entry of CGCGCAGA under PBM E-score: 0.178
# Entry of AAATAATA under PBM E-score: 0.313

# Going on with the list:

row,Sequence,PBM E-score
1,AGGGGGTG,-0.424
2,CGCCTGAA,0.0355
3,ACAATGAC,-0.0847
4,GAATTTAC,0.161
5,CAGACTGA,-0.124
6,CTATTTCC,0.243
7,CACACCCC,-0.199
8,ACATACGT,-0.0596
9,TATATACA,0.187
10,ACCCGGCG,-0.207
11,AGCAGACT,-0.103
12,ACCCAAAA,0.0246
13,GGTACGTA,-0.032
14,CAAGGCAA,-0.0439
15,GCCTTCGC,0.0354
16,CGTGCGAA,-0.0107
17,CCATATCC,0.0404
18,AGGGCGAT,-0.213
19,AACTTCTT,0.0633
20,CATGTGAC,-0.216
21,AACATAGA,0.196
22,ACCGCAGG,-0.079
23,ACATGTAT,0.189
24,CGCCCTCA,-0.184
25,CGCAAGCA,0.0297

# Given as tab-separated lines: entries from further up.
row	Sequence	PBM E-score
3	AGACTTAT	-0.0908
4	AAATAATA	0.313

# More results.

row,Sequence,PBM E-score
1,ATGAAGGC,-0.0561
2,CTTAACCA,0.0916
3,AGATGACC,-0.0783
4,TAAACGAA,0.0778
5,ACGCGAAT,0.0922
6,GGACTAGA,0.0253
7,CACGATGG,-0.139
8,GCACCTAA,-0.0501
9,AGTCGGTG,-0.106
10,AATGCGAG,0.221
11,TATTAACA,0.195
12,AGAAGTGG,-0.0208
13,AACAATCT,0.0905
14,CGCGTCGC,-0.151
15,ACCATTAT,0.0583
16,AAGGTAAA,0.0132
17,GCCTCGAC,-0.235
18,ACGTAAGG,0.199
19,ATAGATAT,0.145
20,ACAACCTG,-0.147
21,ATACACCA,-0.0393
22,AGTGGGAG,-0.095
23,AGTGTCGC,0.0371
24,ATTTGATA,0.319
25,AGCATACT,0.0194

row,Sequence,PBM E-score
1,AGATCTAG,-0.127
2,CCATACTA,0.127
3,CTCGTACC,-0.11
4,TCTACGAA,-0.233
5,TCTGCAGA,-0.0621
6,ATTTTCCC,0.0377
7,GGCACACC,-0.217
8,CGACTAAG,-0.145
9,GTATTTAA,0.154
10,CAGGATGC,-0.0864
11,AGCTGTGC,-0.121
12,AAGCATGC,0.0448
13,GAAAAGAA,0.054
14,AGGGCCGA,-0.06
15,ACGCGGCA,-0.124
16,CGGTAGCA,-0.0591
17,AAGTAAAT,0.226
18,ATGGACAC,0.0133
19,CTGCTTTC,0.058
20,GAGGATAA,0.0764
21,ACTGAACA,0.185
22,AGGGCTGA,-0.0942
23,TACACATA,0.238
24,AGGTAGCG,-0.0989
25,GCATATGC,-0.0363

row,Sequence,PBM E-score
1,ACGCCGGC,0.131
2,AGCAAGAG,-0.116
3,AGAATGTA,0.071
4,GGTTGCAA,0.0262
5,CCCGAACA,0.147
6,AATAGCCC,-0.00512
7,ATTGGTTA,0.225
8,CGGAAATA,0.33
9,AACTGCTT,-0.0248
10,TACGCGGA,-0.0412
11,ACGCCGCG,0.0692
12,CGAAATTC,0.0842
13,AAGTACCT,-0.109
14,ATGCTGGC,0.0323
15,ACGATCAC,0.0378
16,CGTCCCGA,-0.185
17,CCCTAGAA,-0.0914
18,ACACGTAT,-0.00152
19,CAGAACGG,-0.165
20,GACTATAA,-0.0336
21,ACTGATCC,-0.0946
22,AACCACCC,-0.102
